Assay results taken from PubChem BioAssay AID248 (DTP/NCI, 2004).
The list is a part of this screen's results and no random one: its compounds were picked by chemical class. Not every dose and run of a compound is shown. T/C: endpoint of the treated group in % of that of the vehicle group. Some entries give survivors of the animals treated and no T/C: the source holds a T/C of zero for them, seemingly a mark for toxic or unscored doses. Counts of survivors are from the toxicity check (mostly the fifth day) where no day follows; animals may have died later. Schedule codes are those of the source, taken here to give the interval after Q, in days (D) or hours (H), and the number of doses after X. Where survival is the endpoint, the PubChem record calls one and a half times the control and up active, and a quarter to a half above the control has no call in these data; cut-offs in other NCI protocols can differ. Some T/C values are marked as having no survivor count here; that says nothing about deaths at the dose.

System: L1210 leukemia ip in BDF1 mice, survival T/C
Assay: NCI In Vivo Anticancer Drug Screen. Data for tumor model L1210 Leukemia (intraperitoneal) in B6D2F1 (BDF1) mice
Conditions: T/C endpoint: mean survival time, higher T/C = longer survival

Structure (SMILES)	T/C (dose: 10.0 mg/kg/injection, schedule: Q04DX003 (ip), vehicle: saline)	T/C (dose: 20.0 mg/kg/injection, schedule: Q04DX003 (ip), vehicle: saline)	survivor count (dose: 40.0 mg/kg/injection, schedule: Q04DX003 (ip), vehicle: saline)	T/C (dose: 50.0 mg/kg/injection, schedule: Q01DX001 (ip), vehicle: Klucel (hydroxypropylcellulose) (HPC))	T/C (dose: 100.0 mg/kg/injection, schedule: Q01DX001 (ip), vehicle: Klucel (hydroxypropylcellulose) (HPC))	T/C (dose: 200.0 mg/kg/injection, schedule: Q01DX001 (ip), vehicle: Klucel (hydroxypropylcellulose) (HPC))
COP(N1CC1)N1CC1.COP(OC)N1CC1	117 % of control	120 % of control	3 of 6			
Cc1c2ccccc2cc2c1ccc1cccc(F)c12.O=C1c2cc([N+](=O)[O-])ccc2-c2c1cc([N+](=O)[O-])cc2[N+](=O)[O-]				106 % of control [survivor count not shown]	112 % of control [survivor count not shown]	106 % of control [survivor count not shown]
